Reference: patent US20100017370A1, “T CELL EPITOPE DATABASES” (ANTITOPE LIMITED, priority 2006, published 2010)
Some entries share one result that the patent states for a list of compounds.

The sequences below were run on helper T cells in human PBMCs (assay: ex vivo T cell proliferation assay of peptides with CD8+ / CD25hi depleted PBMC). Conditions: T cell assay method of example 1, donor 475.
Assay type: cell-based

Row | Sequence | helper T cell responses
1 | NWGAAYAQKAGAT [compound 20] | no significant responses
2 | NWGEGYHQKIGAT [compound 12] | no significant responses
3 | NWGGHYIQKLGAT [peptide 17] | no significant responses
4 | NWGKMYFQKPGAT [compound 18] | no significant responses
5 | NWGLKYMQKFGAT [compound 13] | no significant responses
6 | NWGNDYQQKEGAT [compound 16] | no significant responses
7 | NWGPSYTQKWGAT [compound 14] | no significant responses
8 | NWGRNYDQKQGAT [compound 11] | no significant responses
9 | NWGSTYWQKYGAT [compound 19] | no significant responses
10 | NWGYVYAQKRGAT [compound 15] | no significant responses
11 | NWLGHYIQKLGAT [peptide 7] | no significant responses
